According to patent US20050203011A1 (The Regents of the University of California, priority 2003, published 2005):

System: C57B1/6 mice or BDNF+/+ and BDNF± mice
Experiment: Ethanol self-administration in mice (two-bottle choice)
Format: in vivo, mouse
Settings: wildtype mice
Method: Voluntary ethanol intake in singly-housed adult male C57B1/6 mice or BDNF+/+ and BDNF±mice was established by placing a bottle containing 10% ethanol in tap water (v/v) on the home cage next to an identical bottle filled with tap water for at least 1 month. Only subjects that consumed at least 40% of their total fluid volume as ethanol were included in these studies. All injections (PBS/10% glycerol vehicle, Tat-KEP27, K252a and/or Tat-RACK1) were conducted at 15:00 hours; ethanol and water intake were measured 18 hours later at 09:00 hours. Treatments were tested using a within-subjects design; subjects received one or two injections per week. Chemicals were administered in injection volumes of 1-3 ml per 100 g body weight. The effect of a deprivation period on consumption was tested by allowing mice continuous access to a bottle of 20% ethanol in tap water and a bottle of tap water on the home cage for 2 weeks. The ethanol bottle was removed for 2 weeks. Intake of 20% ethanol and of water was measured for 4 days after the ethanol was reintroduced.

COC(=O)[C@@]1(O)C[C@H]2O[C@]1(C)n1c3ccccc3c3c4c(c5c6ccccc6n2c5c31)C(=O)NC4 [K252a]
water consumption, mean±SEM (K252a 5 mg/kg): 1.69±0.28 mis
water consumption, mean±SEM (K252a 25 mg/kg): 1.95±0.27 mis
